Reference: PubChem BioAssay AID540256 (National Center for Advancing Translational Sciences (NCATS), 2011)
About 3,700 (1.2%) of roughly 300,000 compounds were called active. Inconclusive means that the source gave no clear call. Such entries were picked first, then a sample of the others. Calls come from the whole dose curve; tested in HEK293 cells. A potency beside an inconclusive call is a rough fit, not a confirmed value.

Assay: qHTS for Inhibitors of binding or entry into cells for Lassa Virus; note: nearly all actives have a fitted effect of over 50% in size
Conditions: Lassa virus pseudotype entry inhibition, cell reporter; series mostly up to 37.9 µM
Potency is the fitted concentration of half-maximal effect.

SMILES | Potency
C=C(C)CN(CC)C(=O)CCc1nnc(CCc2c[nH]c3ccccc23)o1 | inconclusive: 11.2 µM [inhibitor, partial curve, poor fit]
O=C(CNc1cccc2ccccc12)N/N=C/c1ccc[nH]1 | inconclusive: 1.12 µM [inhibitor, full curve, poor fit]
CCCN(C(=O)c1cc2ccc3cccnc3c2[nH]1)c1ccc(F)cc1 | inconclusive: 17.8 µM [inhibitor, single point]
Cc1nn(C(C)C(=O)NCCCc2ccccc2)c(=O)c2nn(-c3ccccc3)c(C)c12 (stereo unspecified) | inconclusive: 10 µM [inhibitor, partial curve, poor fit]
O=[N+]([O-])c1ccc(N2CCCC2)c(F)c1Br | inconclusive: 1.84 µM [inhibitor, partial curve, poor fit]
CCS(=O)(=O)c1ncc(Cl)c(C(=O)Nc2ccc(S(=O)(=O)N3CCCC(C)C3)cc2)n1 (stereo unspecified) | inconclusive: 28.2 µM [inhibitor, single point]
Cc1cc(N2CCN(Cc3cn(C)nc3-c3ccccc3F)CC2)cc(C)n1 | inconclusive: 15.8 µM [inhibitor, partial curve, poor fit]
Nc1ccc2nc(-c3ccccc3)cnc2c1 | inconclusive: 22.4 µM [inhibitor, single point]
Cc1cc(-c2csc(Nc3ccccn3)n2)ccc1F | inconclusive: 31.6 µM [inhibitor, single point]
CCN(CC)C(=O)N1c2ccccc2C=Cc2ccccc21 | active: 0.631 µM
O=S(=O)(c1ccc(OCC(O)CNCc2ccco2)c(Cl)c1)N1CCOCC1 (stereo unspecified) | inconclusive: 0.631 µM [activator, single point]
CC(C)(C)OC(=O)N1CCC(c2c(C(=O)N3CCN(c4ccccc4)CC3)cnn2-c2ccccc2)CC1 | inconclusive: 1.26 µM [inhibitor, full curve, poor fit]
Cc1cccc(Oc2cc(NC(=O)c3ccccc3)cc([N+](=O)[O-])c2)c1 | inconclusive: 20 µM [inhibitor, partial curve, poor fit]
CCOC(=O)c1c(Nc2ccc(F)cc2)nnc(-c2ccccc2)c1-c1ccccc1 | inconclusive: 8.91 µM [inhibitor, partial curve, poor fit]
CCOC(=O)c1ccc(NC(=S)N(CCCN2CCCC2)Cc2ccco2)cc1 | inactive
O=C(O)c1ccccc1SCC(=O)N1CCc2ccccc21 | inconclusive: 10 µM [activator, partial curve]
CC1CCC/C(=N\NC(=O)c2ccncc2)C1 (stereo unspecified) | inactive
Cc1ccc(-c2csc(NC(=O)c3cccc(C)c3)c2C(=O)O)cc1 | inconclusive: 10 µM [inhibitor, partial curve, poor fit]
CCCCOc1ccc(CNC(=O)Cc2ccc(NC(=O)N3CCCCc4ccccc43)cc2)cc1 | inconclusive: 10 µM [inhibitor, partial curve, poor fit]
CC(Sc1nnnn1C1CC1)C(=O)N1c2ccccc2NC(=O)C1(C)C (stereo unspecified) | inactive
COc1ccc(CCNC(=O)c2ccc3c(c2)N(Cc2cc(C)ccc2C)C(=O)c2ccccc2S3=O)cc1OC (stereo unspecified) | inconclusive: 2.24 µM [inhibitor, partial curve, poor fit]
O=C(NCc1ccc(C(=O)O)cc1)OCc1ccccc1 | inactive

In the list so far, 12 contain nitrogen in an aromatic ring.
SMILES | Potency
C=C(C)CN(CC)C(=O)CCc1nnc(CCc2c[nH]c3ccccc23)o1 | inconclusive: 11.2 µM [inhibitor, partial curve, poor fit]
O=C(CNc1cccc2ccccc12)N/N=C/c1ccc[nH]1 | inconclusive: 1.12 µM [inhibitor, full curve, poor fit]
CCCN(C(=O)c1cc2ccc3cccnc3c2[nH]1)c1ccc(F)cc1 | inconclusive: 17.8 µM [inhibitor, single point]
Cc1nn(C(C)C(=O)NCCCc2ccccc2)c(=O)c2nn(-c3ccccc3)c(C)c12 (stereo unspecified) | inconclusive: 10 µM [inhibitor, partial curve, poor fit]
CCS(=O)(=O)c1ncc(Cl)c(C(=O)Nc2ccc(S(=O)(=O)N3CCCC(C)C3)cc2)n1 (stereo unspecified) | inconclusive: 28.2 µM [inhibitor, single point]
Cc1cc(N2CCN(Cc3cn(C)nc3-c3ccccc3F)CC2)cc(C)n1 | inconclusive: 15.8 µM [inhibitor, partial curve, poor fit]
Nc1ccc2nc(-c3ccccc3)cnc2c1 | inconclusive: 22.4 µM [inhibitor, single point]
Cc1cc(-c2csc(Nc3ccccn3)n2)ccc1F | inconclusive: 31.6 µM [inhibitor, single point]
CC(C)(C)OC(=O)N1CCC(c2c(C(=O)N3CCN(c4ccccc4)CC3)cnn2-c2ccccc2)CC1 | inconclusive: 1.26 µM [inhibitor, full curve, poor fit]
CCOC(=O)c1c(Nc2ccc(F)cc2)nnc(-c2ccccc2)c1-c1ccccc1 | inconclusive: 8.91 µM [inhibitor, partial curve, poor fit]
CC1CCC/C(=N\NC(=O)c2ccncc2)C1 (stereo unspecified) | inactive
CC(Sc1nnnn1C1CC1)C(=O)N1c2ccccc2NC(=O)C1(C)C (stereo unspecified) | inactive

A second format for 2 compounds above:
SMILES	Potency
O=C(CNc1cccc2ccccc12)N/N=C/c1ccc[nH]1	inconclusive: 1.12 µM [inhibitor, full curve, poor fit]
CCCN(C(=O)c1cc2ccc3cccnc3c2[nH]1)c1ccc(F)cc1	inconclusive: 17.8 µM [inhibitor, single point]

(further entries)

SMILES | Potency
Cc1cc(NC(=O)CCC(=O)N(c2cccc(F)c2)C(C(=O)NC2CCCC2)c2ccc(C)o2)no1 (stereo unspecified) | inconclusive: 0.794 µM [inhibitor, full curve, poor fit]
Cc1ccc(OCCN2CCN(c3ncnc4sc(C)c(C)c34)CC2)cc1 | inconclusive: 14.6 µM [inhibitor, partial curve, poor fit]
Cc1cccc(C)c1Nc1nnc(SCC(=O)c2ccc(Br)s2)s1 | inconclusive: 18.4 µM [inhibitor, single point]
Cc1ccsc1/C=N/NC(=O)c1cccnc1 | inactive
CCOc1c(Cl)cc(CNc2ccc(S(N)(=O)=O)cc2)cc1OC | inconclusive: 23.1 µM [inhibitor, single point]
Cc1ccccc1N=C1Nc2ccccc2CS1 | inconclusive: 3.16 µM [activator, single point]
CCc1ccc(-c2[nH]nc3nc(-c4ccc(OC)cc4)cc(C(=O)NCCCOC)c23)cc1 | inactive
CCn1c(N2CCN(S(=O)(=O)c3ccc(OC)cc3)CC2)nc2ccccc21 | active: 8.91 µM
COc1ccc(Br)c2c1-c1nc(NC(=O)c3ccccc3F)sc1C2 | inactive
CNC(=S)N/N=C/c1ccc(C(C)C)cc1 | inconclusive: 10 µM [inhibitor, partial curve, poor fit]
CCOC(=O)CSc1nnc2n(Cc3ccccc3)c(=O)c3c4c(sc3n12)CCC4 | inconclusive: 0.447 µM [inhibitor, single point]
CCCCOc1ccc(C(=O)NCC(=O)NCC(c2ccc(F)cc2)N2CCOCC2)cc1 (stereo unspecified) | inconclusive: 0.398 µM [activator, single point]
O=C(CC1C(=O)NCCN1C/C=C/c1ccccc1)NCCc1cccnc1 (stereo unspecified) | inactive
Cn1ccc2c(N3CCCCCC3)cc3c(c21)C1CCC3O1 (stereo unspecified) | inconclusive: 0.0112 µM [inhibitor, full curve, poor fit]
COc1ccccc1NC(=O)CSc1nnnn1C1CCCC1 | inactive
O=C1NN(c2ccccc2)C(=O)/C1=C\c1cccn1-c1ccc(Cl)c([N+](=O)[O-])c1 | inconclusive: 35.5 µM [inhibitor, single point]
CN(C)CCCOC(=O)C1c2ccccc2Oc2ccccc21 | inactive
Cc1cc(C)c(S(=O)(=O)Cc2ccccc2)c(=O)[nH]1 | inconclusive: 3.16 µM [activator, full curve, poor fit]
Cc1ccc(C)c(Cn2c3ccccc3c3cnn(CC(=O)NC4CCC(C)CC4)c(=O)c32)c1 (stereo unspecified) | inactive
COc1ccc(NC(=O)CSC2=Nc3ccccc3C3=NC(CCC(=O)NCc4cccs4)C(=O)N23)cc1 (stereo unspecified) | inactive
O=C(Nc1cccc(S(=O)(=O)Nc2ccc(Cl)cc2)c1)c1cc2c(s1)CCCC2 | inconclusive: 11.2 µM [inhibitor, partial curve, poor fit]
Cc1ccc(NC(=O)CSc2nnc(-c3cc4occc4n3C)n2-c2ccccc2C)c(Cl)c1 | inactive

SMILES | Potency
Cc1ccc(CN2C(=O)N(c3ccc(F)cc3)C(=O)C2CC(=O)Nc2ccc(Cl)cc2)cc1 (stereo unspecified) | inactive
CC1(C)CC(=O)C=C(NCCc2c[nH]c3ccccc23)C1 | inconclusive: 0.316 µM [inhibitor, full curve, poor fit]
O=C(COc1ccc(Cl)cc1Cl)NC(=O)N1CCOCC1 | inconclusive: 6.51 µM [activator, single point]
N#CCCN(C(=O)COC(=O)/C=C/c1cccs1)c1ccccc1 | inactive
COCCCNCCOCCOc1ccc(C)cc1Br | inconclusive: 2.82 µM [inhibitor, partial curve, poor fit]
COc1ccc(C(=O)N[C@H](C(=O)NCc2ccc(C)cc2)C(C)C)cc1 | inconclusive: 28.2 µM [inhibitor, partial curve, poor fit]
CC(=O)Nc1ccc(NC(=O)c2ccc(COc3ccc(C)cc3)o2)cc1 | inactive
CC12CN3CC(=O)N4CC5(C)CN(CC(C)(C4)C5=O)C(=O)CN(C1)CC(C)(C3)C2=O | inconclusive: 0.366 µM [inhibitor, partial curve, poor fit]
O=C(CNC(=O)c1ccco1)NC1CCCCCC1 | inconclusive: 6.31 µM [activator, partial curve, poor fit]
Cc1ncc(CO)c2c1Oc1nc(-c3ccc(F)cc3)nc(SCC(=O)N3CCCCC3)c1C2 | inconclusive: 5.01 µM [inhibitor, full curve]
CC1CCC(NC(=O)CCc2cn(Cc3ccccc3Cl)c3ccccc23)CC1 (stereo unspecified) | inconclusive: 10 µM [inhibitor, partial curve, poor fit]
Cc1cc(NC(=O)c2cc(-c3cccc(Cl)c3)on2)nn1Cc1ccc(Cl)cc1 | inactive
CCCN(CCC)C(=O)Cn1c(=O)n(-c2ccc(C)c(C)c2)c(=O)c2c3c(sc21)CCCCC3 | inconclusive: 4.47 µM [activator, single point]
COc1ccc(-c2oc3cc(O)c(OC)c(O)c3c(=O)c2OC)cc1O | inconclusive: 3.16 µM [inhibitor, partial curve]
COCC(=O)Nc1ccc2c(c1)OCO2 | inconclusive: 35.5 µM [inhibitor, single point]
COc1ccc(/C=C/C(=O)OCC(=O)NC2CCCCC2C)c(OC)c1 (stereo unspecified) | inconclusive: 5.62 µM [inhibitor, single point]
CCc1nc2sc3c(c2c(=O)n1CCO)CCC3 | inconclusive: 2.51 µM [activator, full curve, poor fit]
CCc1ccc(NC(=O)COn2nnc3ccc(S(=O)(=O)N(C)C)cc32)cc1 | inconclusive: 18.3 µM [inhibitor, partial curve, poor fit]
CCOC(=O)c1cnc(-n2nc(C)cc2C)nc1NNc1ncc(-c2ccccc2)cn1 | inconclusive: 22.4 µM [inhibitor, single point]
CC(=O)Nc1ccc(S(=O)(=O)NCCC(=O)N2CCN(C(c3ccccc3)c3ccccc3)CC2)cc1 | active: 0.316 µM
Cc1ccc(C2c3[nH]c4ccccc4c3CCN2C(=O)c2ccccc2Br)cc1 (stereo unspecified) | inconclusive: 11.2 µM [inhibitor, partial curve, poor fit]
CC1CCCN(C2=C(NS(=O)(=O)c3ccc(Cl)cc3)C(=O)c3ccccc3C2=O)C1 (stereo unspecified) | inconclusive: 11.2 µM [inhibitor, partial curve, poor fit]
